The term AC50 denotes the concentration at which the activity in the assay is half-maximal. Higher therefore signals activity only at high concentration.

The experiment in a line: qHTS Assay for Lipid Storage Modulators in Drosophila S3 Cells.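 On cell number change: cells counted by Cell Tracker Red CMTPX staining in the red channel.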 As to conditions: BODIPY lipid droplet fluorescence, 18-24 h; for cell number change: measured here: cell count max response, cells fed with added oleic acid. In outline: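 Drosophila S3 cells loaded with oleic acid (400 uM, as added) and compounds at several concentrations; lipid droplets imaged by 488-nm laser-scanning cytometry, 500–530 nm intensity and object ratio to cell channel. Percent activity normalized to 20 uM Triacsin C.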
Background: qHTS replaces the single test concentration by a dilution series.

The mark [1] stands for this setting: measured here: lipid fluorescence (Fed channel) AC50, cells fed with added oleic acid.
The mark [2] stands for this setting: measured here: cell number channel AC50, cells fed with added oleic acid.

Molecules are shown by their SMILES. This is one part of the list. Further columns of the screen follow, without active or inactive calls. The list favours compounds with an active or inconclusive main result. The note in brackets gives the kind of curve behind each potency; many fits are weak.

With `N=C1/C(=C\c2ccc(OC(=O)c3ccc(F)cc3)cc2)C(=O)N=C2SC(N3CCOCC3)=NN12`, the cell number change was -6.57%. For the same compound, the AC50 under setting [1] is 4.61 µM [rising, full curve].
For the compound `CCOC(=O)[C@H]1[C@H]2COc3ccc(Cl)cc3[C@@H]2N2C(=O)CN(C)C(=O)[C@@]12C`, the cell number change stood at 6.86%.
In the case of `N#Cc1nc(COc2ccc(Cl)cc2Cl)oc1N1CCOCC1`, the cell number change was -21.1%. Moreover, under setting [1], the AC50 was 0.326 µM [rising, partial curve, poor fit].
In the case of `Cc1cccc(N(C(=O)c2snc(C(N)=O)c2N)C(C(=O)NCC2CCCO2)c2ccc3ncccc3c2)c1` (configuration not stated), the cell number change was 3.85%.
For `CCc1ccccc1NC(=O)CNC(=O)CCNC(=O)Nc1ccccc1`, the cell number change was found to be 9.98%. The AC50 under setting [1] was 0.231 µM [rising, full curve, poor fit].
Consider `CCCS(=O)(=O)N1CCN(CC2CC=CCC2)CC1` (configuration not stated), for which the cell number change was -52.3%. Further, under setting [2], the AC50 was 0.0517 µM [falling, full curve].
For the compound `COc1ccc(Cl)cc1NC(=O)COc1ccc(S(=O)(=O)N2CCOCC2)cc1C`, the cell number change is -9.52%. In addition, the AC50 under setting [1] is 29.1 µM [rising, single point].
Regarding `COc1ccc(C(=O)NCc2nnc(SCC(=O)Nc3ccccc3OC)n2C)cc1`, the cell number change was 103%. Under setting [2], the AC50 was 20.6 µM [rising, single point].
Consider `Cc1cc(O)c(C2(C(F)(F)F)NCCNC2=O)cc1C` (configuration not stated), for which the cell number change is -192%. Further, the AC50 under setting [2] was 20.6 µM [falling, partial curve].
`Cc1c(-c2ccccc2)oc2c(C(=O)OCC(=O)Nc3ccc(F)cc3)cccc2c1=O`: the cell number change is -2.09%. For the same compound, under setting [1], the AC50 is 1.64 µM [rising, full curve].
Consider `COc1cc(C(=O)NCCNc2nc3c(C)c(C)ccc3cc2C#N)cc(OC)c1OC`, for which the cell number change was found to be 0.587%. Further, under setting [1], the AC50 is 4.11 µM [rising, full curve].
As for `CC1CCN(c2cc(N3CCOCC3)c([N+](=O)[O-])cc2F)CC1`, the cell number change was -20.4%. The AC50 under setting [1] was 6.51 µM [falling, single point].
With `Cn1c(=O)c2c(SCC(=O)N3CCOCC3)nc(-c3ccccc3F)nc2n(C)c1=O`, the cell number change came to 10.6%. Moreover, the AC50 under setting [1] was 6.51 µM [falling, single point].
Regarding `CC(C)NC(=S)Nc1ccc2[nH]c(=O)[nH]c2c1`, the cell number change amounted to 16.2%. Under setting [1], the AC50 is 32.6 µM [rising, partial curve].
For the compound `COc1ccccc1C(=O)Nc1cc2c(cc1C(=O)O)OCCCO2`, the cell number change was found to be 3.91%.
On the same count and under the same terms, to `Cn1c2cc([N+](=O)[O-])sc2c2cnn(Cc3ccccc3F)c(=O)c21` belongs 17.4%; to `C/C(=C\C(=O)Nc1cc(C)on1)c1ccccc1`, 11.4%; to `N/C(=N\OC(=O)CC1CCCCC1)c1ccc(Br)cc1`, 17%.
Take `Cc1cc(Cl)ccc1OCC(=O)N/N=C1\CCCc2ccccc21`: the cell number change was 40.8%. For the same compound, the AC50 under setting [2] was 23.1 µM [rising, single point]. Also, under setting [1], the concentration at half-maximal activity (AC50) was 23.1 µM [falling, single point].
In the case of `O=C(O)CCNS(=O)(=O)c1ccccc1`, the cell number change is -24.2%. The AC50 under setting [2] was 4.11 µM [falling, full curve, poor fit]. Further, the AC50 under setting [1] is 0.058 µM [falling, full curve].
With `COc1ccc(OCC(=O)Nc2ccc3c(c2)nc(CCN2CCCCC2)n3C)cc1`, the AC50 under setting [1] is 3.26 µM [rising, partial curve, poor fit].
For `Cc1cccc(C)c1NC(=O)C1CSC2(C)CCC(=O)N12` (configuration not stated), the cell number change is 32.4%. For the same compound, the AC50 under setting [2] is 5.17 µM [rising, full curve, poor fit]. Besides, under setting [1], the AC50 is 5.8 µM [rising, partial curve].
In the case of `Cc1ccc(S(=O)(=O)Nc2cccc(C(=O)NC3CCN(Cc4ccccc4)CC3)c2)cc1F`, the cell number change worked out at 150%. Moreover, the AC50 under setting [2] was 13 µM [rising, partial curve].
On to `COc1c(C)cc(C(=O)C2CCCN(C(=O)CCCn3cncn3)C2)cc1C` (configuration not stated), for which the cell number change worked out at 8.39%. Further, the AC50 under setting [2] was 0.00517 µM [rising, full curve, poor fit]. Further, the AC50 under setting [1] was 13 µM [rising, partial curve].
`O=S(=O)(c1ccc(F)c(F)c1)N1CCN(c2ccccn2)CC1`: the cell number change is 27.2%. Also, the AC50 under setting [1] is 0.731 µM [rising, single point].
For the compound `Cc1noc(-c2ccc(Cl)cc2)c1C(=O)O/N=C(\N)c1ccc(C(C)(C)C)cc1`, the cell number change came out at 7.15%.
Take `COc1ccc(-n2c(C)nn(CCOc3ccccc3)c2=O)cc1`: the cell number change was -10.6%. For the same compound, the AC50 under setting [1] was 3.16 µM [falling, single point].
With `O=C(NCCN1C(=O)CSC1=O)c1ccccc1`, the cell number change is -12%. Moreover, the AC50 under setting [1] is 4.61 µM [falling, partial curve].
For `CCCCCCN1C=C/C(=C\C=C(C#N)C#N)c2ccccc21`, the cell number change was -61.6%. Under setting [2], the AC50 was 9.2 µM [falling, partial curve]. For the same compound, the AC50 under setting [1] is 6.51 µM [falling, full curve].
Take `O=[N+]([O-])c1ccccc1CSc1nc2ccccc2o1`: the cell number change is -2.19%. In addition, the AC50 under setting [1] is 6.51 µM [rising, single point].
On to `Oc1ccccc1C1=Nc2ccccc2N=C(c2ccco2)C1`, for which the cell number change is -25.4%. Also, the AC50 under setting [1] was 3.26 µM [rising, partial curve].
For the compound `Cc1c(C)c2c(OCC(=O)N3CCC[C@H]3C(=O)O)cc3c(c2oc1=O)CCC(C)(C)O3`, the cell number change is -6.8%. The AC50 under setting [1] was 3.26 µM [rising, full curve].
With `O=C(CCC(=O)Nc1ccc(Br)cc1)N/N=C/c1ccccc1F`, the cell number change is 33.3%. In addition, the AC50 under setting [1] was 16.4 µM [falling, partial curve].
Regarding `CCOc1ccc(-c2nnc3n2N=C(c2ccc(OC)cc2)CS3)cc1`, the cell number change was -28%. Moreover, under setting [1], the AC50 is 0.259 µM [falling, full curve, poor fit].
In the case of `CCOC(=O)C(NC(=O)CC(C)C)(Nc1sc(C)c(CC)c1C#N)C(F)(F)F` (configuration not stated), the cell number change is -68.1%. Further, under setting [2], the AC50 was 5.17 µM [falling, full curve]. The AC50 under setting [1] is 2.06 µM [falling, partial curve].
On to `COc1ccc(-c2cnnc(N/N=C/c3ccc(O)cc3)n2)cc1`, for which the cell number change was -11.5%.
Same read-out and setting: to `Oc1ccc(/C=N/N2CCCCC2)c(O)c1O` belongs -12.1%.
Turning to `CCS(=O)(=O)c1ccc2oc(SCC(=O)N3c4ccccc4CC3C)nc2c1` (configuration not stated), the cell number change is 34.1%. Further, the AC50 under setting [2] is 5.8 µM [rising, full curve, poor fit]. For the same compound, the AC50 under setting [1] is 0.184 µM [rising, full curve, poor fit].
On to `CC1CCCC(C)N1CCCNC(=O)Cn1cc2c(n1)CCCC2` (configuration not stated), for which the cell number change worked out at 19.7%. Further, the AC50 under setting [1] was 18.4 µM [rising, single point].
Consider `COc1ccc(OC)c(N)c1`, for which the cell number change stood at 6.24%. For the same compound, the AC50 under setting [1] was 2.59 µM [rising, partial curve].

The record behind these values is PubChem BioAssay AID2685 (National Center for Advancing Translational Sciences (NCATS), 2010).
